Values from PubChem BioAssay AID743121 (NCATS, 2013)
Screen: 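Knock-downs that sensitise breast cancer cells to camptothecin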 (primary screen). Cells: MDA-MB-231 cells, a human breast cancer line. Reagents: single siRNA against human genes, 20 nM siRNA (0.8 pmol per well). Time to read-out: 120 h (drug added 48 h after transfection, read 72 h later). Treatment: camptothecin 20 nM (about EC30) for 72 h; vehicle 0.1% DMSO in parallel plates. Detection: 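Cell viability by ATP luminescence (CellTiter-Glo) as % of non-targeting siRNA wells, and the log2 ratio of viability without drug over viability with camptothecin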. Reading the numbers: log2 vehicle/camptothecin viability: higher = stronger sensitisation to camptothecin; viability with camptothecin and viability without drug: higher = more viable cells. Rule for the call: 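Each gene scored by redundant siRNA activity (RSA) over its individual siRNA ratios; a gene is called active at p < 0.001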.
This is an unselected part of about 26,000 reagents tested. Over the whole deposit, 167 (0.63%) were called active. 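Calls are per gene from RSA p-values that are not deposited; an individual active-marked siRNA can sensitise only weakly.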 The numbers tell different reagents against one gene apart.

no.	gene knocked down	siRNA no.	log2 vehicle/camptothecin viability	viability with camptothecin (% of control)	viability without drug (% of control)	Outcome
1	RAB25	1	-0.174	87.4	77.5	inactive
2	RAB25	2	-0.0735	85.2	81	inactive
3	RAB25	3	-0.0755	63	59.8	inactive
4	RAB25	4	-0.165	47.2	42.1	inactive
5	YAP1	1	-0.336	94.8	75.1	inactive
6	YAP1	2	-0.0722	86.4	82.2	inactive
7	YAP1	3	-0.146	85.3	77.1	inactive
8	YAP1	4	-0.108	97	89.9	inactive
9	PMM2	1	-0.132	93.3	85.2	inactive
10	PMM2	2	0.0928	39.1	41.7	inactive
11	PMM2	3	-0.21	112	96.7	inactive
12	PAPSS2	1	-0.146	99.9	90.2	inactive
13	PAPSS2	2	0.64	38.4	59.8	inactive
14	PAPSS2	3	-0.351	102	80.3	inactive
15	PAPSS2	4	-0.319	96.5	77.3	inactive
16	GRK1	1	-0.0837	75.4	71.2	inactive
17	GRK1	2	-0.191	68.2	59.8	inactive
18	GRK1	3	-0.2	72.7	63.3	inactive
19	GRK1	4	-0.278	114	94.4	inactive
20	TMEM266	1	-0.264	86	71.7	inactive
21	TMEM266	2	-0.0592	90.3	86.7	inactive
22	TMEM266	3	-0.329	92.9	74	inactive
23	TMEM266	4	-0.298	103	83.5	inactive
24	GDF1	1	-0.411	90.4	68	inactive
25	GDF1	2	-0.526	91.9	63.8	inactive
26	GDF1	3	0.313	60	74.5	inactive
27	KIF14	1	0.471	71.2	98.6	inactive
28	KIF14	2	-0.143	115	104	inactive
29	KIF14	3	-0.00355	95.6	95.4	inactive
30	SLC25A1	1	-0.0234	75.8	74.6	inactive
31	SLC25A1	2	-0.111	107	99.3	inactive
32	SLC25A1	3	-0.0433	43.9	42.6	inactive
33	SLC25A1	4	-0.655	51	32.4	inactive
34	RP1	1	-0.122	115	106	inactive
35	RP1	2	0.00843	56.9	57.2	inactive
36	RP1	3	-0.0958	104	97.1	inactive
37	RP1	4	-0.0235	51.5	50.7	inactive
38	FBXL8	1	0.0151	61	61.6	inactive
39	FBXL8	2	-0.0896	45.4	42.6	inactive
40	FBXL8	3	0.0142	64.9	65.5	inactive
41	CP	1	0.0736	91.7	96.5	inactive
42	CP	2	-0.521	71.8	50.1	inactive
43	CP	3	-0.445	107	78.7	inactive
44	CP	4	-0.705	66.9	41	inactive
45	TMPRSS3	1	-0.0232	91.4	90	inactive
46	TMPRSS3	2	0.461	6.4	8.82	inactive
47	TMPRSS3	3	0.295	63.8	78.2	inactive
48	ADGRG4	1	-0.065	91.6	87.6	inactive
49	ADGRG4	2	0.0775	89	93.9	inactive
50	ADGRG4	3	0.0759	64.1	67.5	inactive
51	ADGRG4	4	-0.118	35.4	32.6	inactive
52	NRG3	1	-0.222	87.8	75.3	inactive
53	NRG3	2	-0.329	93.2	74.2	inactive
54	NRG3	3	0.43	56.4	76	inactive
55	ABCA12	1	-0.0965	99.6	93.1	inactive
56	ABCA12	2	0.356	88.4	113	inactive
57	ABCA12	3	-0.225	102	87	inactive
58	ABCA12	4	-0.158	96.8	86.8	inactive
59	SEC11B	1	0.147	84.2	93.2	inactive
60	SEC11B	2	0.0351	103	105	inactive
61	SEC11B	3	-0.0726	93.2	88.7	inactive
62	AIPL1	1	-0.239	113	95.8	inactive
63	AIPL1	2	-0.0781	48.7	46.2	inactive
64	AIPL1	3	-0.408	43.1	32.5	inactive
65	SLC6A14	1	-0.308	79.5	64.2	inactive
66	SLC6A14	2	-0.23	82.8	70.6	inactive
67	SLC6A14	3	-0.316	97.2	78.1	inactive
68	RPL4	1	-0.455	42.5	31	inactive
69	RPL4	2	-0.428	45.8	34	inactive
70	RPL4	3	-0.209	107	92.9	inactive
71	RPL4	4	-0.8	31.9	18.3	inactive

Records above whose gene name begins with Y or y:
gene knocked down	siRNA no.	log2 vehicle/camptothecin viability	viability with camptothecin (% of control)	viability without drug (% of control)	Outcome
YAP1	1	-0.336	94.8	75.1	inactive
YAP1	2	-0.0722	86.4	82.2	inactive
YAP1	3	-0.146	85.3	77.1	inactive
YAP1	4	-0.108	97	89.9	inactive
